The values below come from PMC12214019.

Chains of the proteins cited; added tags and fusions are not shown. A line that says so, or that is headed by a name, gives the form on record, which may keep a tag or linker. Residues count along the entry.
UniProt P0AGE0, 2-178: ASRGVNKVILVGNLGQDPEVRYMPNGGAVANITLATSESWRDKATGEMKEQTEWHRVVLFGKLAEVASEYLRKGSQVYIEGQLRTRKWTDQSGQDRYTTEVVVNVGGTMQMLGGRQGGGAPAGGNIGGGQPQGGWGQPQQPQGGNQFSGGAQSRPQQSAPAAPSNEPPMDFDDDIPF
RPA (yeast) (Saccharomyces cerevisiae), one chain, as listed by the source, chain 3 of 3: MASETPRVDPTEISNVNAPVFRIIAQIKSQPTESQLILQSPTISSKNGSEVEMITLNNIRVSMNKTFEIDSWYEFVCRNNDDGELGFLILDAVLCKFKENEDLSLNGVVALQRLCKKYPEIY
RPA (yeast) (Saccharomyces cerevisiae), one chain, as listed by the source, chain 1 of 3: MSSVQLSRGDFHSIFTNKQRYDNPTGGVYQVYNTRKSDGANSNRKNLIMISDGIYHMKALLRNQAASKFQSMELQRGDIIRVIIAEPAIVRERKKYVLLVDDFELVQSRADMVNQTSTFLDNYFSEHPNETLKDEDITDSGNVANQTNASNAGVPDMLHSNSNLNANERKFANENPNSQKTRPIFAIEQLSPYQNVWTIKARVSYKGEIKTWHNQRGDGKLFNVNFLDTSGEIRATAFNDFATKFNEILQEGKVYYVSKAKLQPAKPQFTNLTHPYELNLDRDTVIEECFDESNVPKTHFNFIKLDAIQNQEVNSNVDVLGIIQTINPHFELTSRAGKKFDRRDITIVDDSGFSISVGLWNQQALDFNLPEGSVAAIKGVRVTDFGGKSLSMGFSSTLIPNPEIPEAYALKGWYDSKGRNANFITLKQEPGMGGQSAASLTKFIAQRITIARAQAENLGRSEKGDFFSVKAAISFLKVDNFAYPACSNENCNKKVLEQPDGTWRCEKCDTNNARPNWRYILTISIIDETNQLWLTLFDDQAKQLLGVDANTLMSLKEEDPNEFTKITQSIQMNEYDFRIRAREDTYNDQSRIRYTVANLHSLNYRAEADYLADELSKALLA
RPA (yeast) (Saccharomyces cerevisiae), one chain, as listed by the source, chain 2 of 3: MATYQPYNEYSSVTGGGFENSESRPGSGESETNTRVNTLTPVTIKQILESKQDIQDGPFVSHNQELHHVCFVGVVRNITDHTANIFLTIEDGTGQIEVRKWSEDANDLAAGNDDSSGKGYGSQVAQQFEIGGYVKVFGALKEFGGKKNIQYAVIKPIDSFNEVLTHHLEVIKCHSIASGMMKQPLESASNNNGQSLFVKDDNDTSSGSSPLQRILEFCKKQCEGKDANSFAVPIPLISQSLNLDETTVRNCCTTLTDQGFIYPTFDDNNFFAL

The target in data set [1] is SSB (UniProt P0AGE0). In words: competition (smFRET strand transfer). Particulars: 300 mM NaCl, 10 mM Tris-HCl pH 7.5, 100 or 300 mM NaCl, 10% glycerol, 10 mM Trolox, 0.5% glucose, glucose oxidase/catalase, ~23 C, recombinant protein, single-stranded DNA.
Data set [2] relates to RPA (yeast) (Saccharomyces cerevisiae). In words: competition with a labelled probe. Particulars: up to 10 uM U50 does not displace RPA from DNA (dT40), 100 mM NaCl; 10 mM Tris-HCl pH 7.5, 100 or 300 mM NaCl, 10% glycerol, 10 mM Trolox, 0.5% glucose, glucose oxidase/catalase, ~23 C; recombinant protein.
For data set [3], the target named is SSB (UniProt P0AGE0). In words: competition with a labelled probe. The following applies: up to 10 uM U50 does not displace SSB from dT70, 100 mM NaCl; 10 mM Tris-HCl pH 7.5, 100 or 300 mM NaCl, 10% glycerol, 10 mM Trolox, 0.5% glucose, glucose oxidase/catalase, ~23 C; recombinant protein.
For data set [4], the system named is RPA (yeast) (Saccharomyces cerevisiae). Put plainly: competition (smFRET strand transfer). The following applies: 10 mM Tris-HCl pH 7.5, 100 or 300 mM NaCl, 10% glycerol, 10 mM Trolox, 0.5% glucose, glucose oxidase/catalase, ~23 C, recombinant protein, single-stranded DNA.

Weaker means in comparison with the reference protein, sequence or condition of that experiment. For at least one entry, the source does not settle the construct or the ends of the probe. For part of these data: At least one verdict was read from the data and is not stated in words by the source.

Take “TTTTTTTTTTTTTTTTTTTTTTTTTTTTTTTTTTTTTTTTTTTTTTTTTTTTTTTTTTTTTTTTTTTTTT [dT70]”: the binding result in data set [1] (100 nM competitor from dT70-SSB) is on record as “binds”.

For the sequence “TTTTTTTTTTTTTTTTTTTTTTTTTTTTTTTTTTTTTTTTTTTTTTTTTTTTTTT [dT55]”, the binding result in data set [1] (100 nM competitor from dT70-SSB, rate jumps between dT55 and dT60) was “binds more weakly”.

“UUUUUUUUUUUUUUUUUUUUUUUUUUUUUUUUUUUUUUUUUUUUUUUUUU [U50]”: the binding result in data set [2] and in data set [3] was “binds more weakly” in each case.

As for TTTTTTTTTTTTTTTTTTTT [dT20], in data set [4] (100 nM competitor from dT40-RPA, rate jumps between dT20 and dT30), the binding result is reported as “binds more weakly”.

In the case of “TTTTTTTTTTTTTTTTTTTTTTTTTTTTTTTTTTTTTTTT [dT40]”, the binding result in data set [1] (100 nM competitor from dT70-SSB, slower than longer ssDNA) is recorded as “binds more weakly”.

With TTTTTTTTTT [dT10], in data set [4] (100 nM competitor from dT40-RPA, 100 mM NaCl), the binding result was “binds more weakly”.

Consider “TAAATTAATACGACTCACTATAGGGAGACCACAAGGTGAGGAGTAGGAATCCGTATCTATCAGCTCCAGG [Comp_mixed seq]”, for which the binding result in data set [4] (from mixed-sequence tethered DNA, 100 mM NaCl) is on record as “binds”; in data set [1] (from mixed-sequence tethered DNA), “binds”.
